The source of these data is PMC7819943, “Rice protein-binding microarrays: a tool to detect cis-acting elements near promoter regions in rice”.

Chains of the proteins cited; added tags and fusions are not shown.
UniProt Q0JBA9, entry or part of it: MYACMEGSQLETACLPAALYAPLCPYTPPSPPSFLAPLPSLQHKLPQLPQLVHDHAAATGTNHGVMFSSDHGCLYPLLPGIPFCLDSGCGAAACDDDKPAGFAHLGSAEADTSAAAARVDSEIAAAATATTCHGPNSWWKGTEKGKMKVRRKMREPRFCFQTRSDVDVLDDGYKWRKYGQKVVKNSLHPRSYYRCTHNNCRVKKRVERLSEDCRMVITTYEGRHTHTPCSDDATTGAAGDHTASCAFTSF

Some of the results follow.

For this assay, the target named is OsWRKY34 (Oryza sativa, UniProt Q0JBA9 1-250). As to the kind of experiment: protein-binding microarray (RPBM); PBS, 2% BSA, 51.3 ng/ul salmon testes DNA, 50 uM zinc acetate, 200 nM TF, 25 C, 1 h; high values mean tight binding. Particulars: protein: recombinant; tags: N-terminal polyhistidine and DsRed monomer fusion (pET32a); label: CyDye5-dUTP incorporated in the synthesized complementary strand; 3' TTTTT single-stranded linker to array surface; dsDNA, one strand shown. In short, it runs like this: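 Ni–NTA purification followed expression in E. coli BL21-CodonPlus of transcription factors fused N-terminally to a polyhistidine tag and DsRed. At 200 nM in PBS with 2% BSA, salmon testes DNA and 50 µM zinc acetate, the protein was incubated for 1 h at 25 °C with a custom Agilent array that had been primer-extended with Cy5-dUTP and blocked with 2% BSA. After washing, the array was read on an Axon 4000B scanner. The binding signal is per-feature fluorescence intensity in arbitrary units.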
On to “GTCAAACCGCTCCCTGACTGCGCCGAGTTTTATTCCCTGCCGGAGTCACCTAGTGCAG”, for which the binding signal is 9340 fluorescence intensity (a.u.). For the sequence “CCGCCGCCCGACCACGACCAGATCCACGGCTCCTCCTCCGCGGAGTCACCTAGTGCAG”, the binding signal is 8180 fluorescence intensity (a.u.). In the case of “TTAAAGTTTAGGGTTGACTTTCATATAGAGTTTAGGAATGCGGAGTCACCTAGTGCAG” it was 10900 fluorescence intensity (a.u.). For “GCCACGCATGCAATTGCAGCCTTGCTTGCCCAAGCTTTACCGGAGTCACCTAGTGCAG”, the binding signal is 10200 fluorescence intensity (a.u.).

For the sequence “GTAATCCTCTGTTTTACACTTCTATTCCTGTCAGAATCCTCGGAGTCACCTAGTGCAG”, the binding signal is 11400 fluorescence intensity (a.u.). In the case of “TACGGGCTCCATGGTTACTTCGACACCACCGGCACCCACGCGGAGTCACCTAGTGCAG” it was 10100 fluorescence intensity (a.u.); in that of “CCCTCGACCGCTCCCGCTTCTCCGACCACTCCGCCCGCGACGGAGTCACCTAGTGCAG”, 8580 fluorescence intensity (a.u.); in that of “CCTCGTGCACCACGCTAGCTAACCCGCCTAGTTCACGCAACGGAGTCACCTAGTGCAG”, 8450 fluorescence intensity (a.u.). In the case of “ACAACATATATTCTCTGGACAGTTATATCTTTGCTTCTTACGGAGTCACCTAGTGCAG” it was 9310 fluorescence intensity (a.u.); in that of “AATTTAATCTCTCCTTGCAGGTACACTCTCCACCATGTATCGGAGTCACCTAGTGCAG”, 9460 fluorescence intensity (a.u.); in that of “AAATACCACTCCACCTGCTGCCGTCGCCGCCGCCATCGCCCGGAGTCACCTAGTGCAG”, 11500 fluorescence intensity (a.u.). Regarding “TCACTATACCTGTATGGCTGTATGTATGTGTATACGCTTTCGGAGTCACCTAGTGCAG”, the binding signal is 8220 fluorescence intensity (a.u.). For the sequence “GATAGGAGTGATGGGAAATGCTCTCATGCTTGTTTCTTACCGGAGTCACCTAGTGCAG”, the binding signal is 8670 fluorescence intensity (a.u.). With “ATGATTGGCTGTCTGAAGTTCTGTTCATCTATTTAATTAACGGAGTCACCTAGTGCAG”, the binding signal was 8430 fluorescence intensity (a.u.). The figure for “CATACACCACCTTTACCTCGCTAATCGGGTCTCTAATTAGCGGAGTCACCTAGTGCAG” is 8420 fluorescence intensity (a.u.). In the case of “TCTTTTCTTTTACGCTTATACTTATCAGTAAAAATTTAAACGGAGTCACCTAGTGCAG” it was 8960 fluorescence intensity (a.u.); in that of “TCGTGCGTGCGTGTTTAATTGTCAACCCATACACAACTTGCGGAGTCACCTAGTGCAG”, 8510 fluorescence intensity (a.u.). In the case of “ATACTAATGCGATTTCTTTACTTAATTTCCTTTCATAAGTCGGAGTCACCTAGTGCAG” it was 10500 fluorescence intensity (a.u.); in that of “ACTATCTCTCGCTGCAAACCATGACTTCTTTCTAATCTTTCGGAGTCACCTAGTGCAG”, 11300 fluorescence intensity (a.u.). Take “GTCTACCTGCAGTCCCGTCGCTCTCTCACCAGCAGCCATGCGGAGTCACCTAGTGCAG”: the binding signal was 10800 fluorescence intensity (a.u.). As for “AACTTATACTGCCTCATTTTTCGTCCATACGTTTCTCAATCGGAGTCACCTAGTGCAG”, the binding signal is 8290 fluorescence intensity (a.u.). As for “GGCCCGAACCTGTATACATCGCCCGTGTCTTGTGTGTTTCCGGAGTCACCTAGTGCAG”, the binding signal is 13800 fluorescence intensity (a.u.).

“ATTGCCTTTTTCATTGAAACCATATTATGCTGTCATATCCCGGAGTCACCTAGTGCAG”: the binding signal is 8450 fluorescence intensity (a.u.). On to “CAGACCAGCCGTAAAACCCTTCCCCATTTTAGCCTCCTCGCGGAGTCACCTAGTGCAG”, for which the binding signal was 8180 fluorescence intensity (a.u.). The figure for “GCACGAGGGGAGATGTGCGGGCTGCAGTTTTTCTTTTGAACGGAGTCACCTAGTGCAG” is 8680 fluorescence intensity (a.u.); for “AGTGACGCATTTTTTTACATTGACTTTGTGCACTTTGTTACGGAGTCACCTAGTGCAG” it is 9290 fluorescence intensity (a.u.); for “GTTCGGGGCGTGTGCTCTAGTTCATATTCTTTCTCGACAGCGGAGTCACCTAGTGCAG” it is 10400 fluorescence intensity (a.u.). In the case of “TCATTGGCATGTTTTTTCTCCAGCTGAAGTTGTTTGCCATCGGAGTCACCTAGTGCAG” it was 9860 fluorescence intensity (a.u.). The figure for “ATGGGTTCCAACCCACCCCTCGTTTTCCATGTGCACGTTTCGGAGTCACCTAGTGCAG” is 8140 fluorescence intensity (a.u.); for “CGCCTCCGAACATCTCTCTACGCGCGACGCCCACCAGTACCGGAGTCACCTAGTGCAG” it is 8680 fluorescence intensity (a.u.); for “ACCATGCTTTCTTCGTCGTCTACCTCGCCGGCGTCCGCTTCGGAGTCACCTAGTGCAG” it is 8710 fluorescence intensity (a.u.). Consider “TCACCCATTTTTAGCTTGGTCATCATCAAAAGTAGGATCACGGAGTCACCTAGTGCAG”, for which the binding signal was 8100 fluorescence intensity (a.u.).

For “GATACGTTCATCCGTTTTCATGGCCGGCCGGCTACCACCGCGGAGTCACCTAGTGCAG”, the binding signal was 8910 fluorescence intensity (a.u.). In the case of “TCTCGCCTCGCCGCGCACATGACATTGATAATAACACCGTCGGAGTCACCTAGTGCAG” it was 8770 fluorescence intensity (a.u.); in that of “AGTTCAGTTCAGTTCAGTTTTTGTTACGTCGTCGTTCGAGCGGAGTCACCTAGTGCAG”, 8850 fluorescence intensity (a.u.). Consider “ACGCCACGATGGCCTCCTCGCCCGCCCCACCAGGACACCACGGAGTCACCTAGTGCAG”, for which the binding signal is 8960 fluorescence intensity (a.u.). In the case of “TGGATCCTCTGCATATTGTTCAGTCTTGTCCTTTTGCTTTCGGAGTCACCTAGTGCAG” it was 9080 fluorescence intensity (a.u.); in that of “CTCCGCGGGACGCGTGTCTCCGCTCCCACGCCGCTGTCTACGGAGTCACCTAGTGCAG”, 8040 fluorescence intensity (a.u.).

Take “CACTGGTTTTGATAGTTGAGGGACTCTTGTGTCTGGTTTTCGGAGTCACCTAGTGCAG”: the binding signal was 8510 fluorescence intensity (a.u.). In the case of “TCTATGTCTATCTCTCATCCGATTCCTACATTTTTCCTGCCGGAGTCACCTAGTGCAG” it was 11300 fluorescence intensity (a.u.); in that of “TAGCCCCAACTTCTTTTAGATTTTCTTTTTCGAAAAGAGACGGAGTCACCTAGTGCAG”, 9040 fluorescence intensity (a.u.).

In the case of “TCACATATGTGTGCTATGATTTGTTTTCTTCCTCACCAAACGGAGTCACCTAGTGCAG”, the binding signal was 8190 fluorescence intensity (a.u.). In the case of “AGATTTTTTCCATTTCCATGTGTGTGCTATGAACACCGTGCGGAGTCACCTAGTGCAG” it was 8050 fluorescence intensity (a.u.); in that of “CTAGTCACATTCTGAATCTCTTTTCCTTTTTCCAGTGTCTCGGAGTCACCTAGTGCAG”, 8100 fluorescence intensity (a.u.). The figure for “TCTTCTTCTTCTTCCACCCGTTGCTGATTCCCTCACTGCTCGGAGTCACCTAGTGCAG” is 8180 fluorescence intensity (a.u.).

In the case of “TTTTGTAAGTTGAGGGATGTGATATATCTGGTTTTGCGGTCGGAGTCACCTAGTGCAG”, the binding signal is 10600 fluorescence intensity (a.u.). In the case of “TCCATCTGGCGAGCAGGGTAGGGGAGGGGAAGGGATCCTGCGGAGTCACCTAGTGCAG”, the binding signal is 15100 fluorescence intensity (a.u.). The figure for “CGCTGCTTCTGATCATCTCCCGTTCTTGCATTCTTCTTCTCGGAGTCACCTAGTGCAG” is 19400 fluorescence intensity (a.u.); for “CCCTCTTGCAGTGTGTTCTCTCGTATCCACACGCGCAAGCCGGAGTCACCTAGTGCAG” it is 8550 fluorescence intensity (a.u.).

Consider “TAGGATCGGGTTCTCGTCGCCGCTTGCTGATGATCTGTTCCGGAGTCACCTAGTGCAG”, for which the binding signal is 9220 fluorescence intensity (a.u.). Consider “ACATGCTAACTTCAAATTAAATACGGTCTCCTAATTGCAGCGGAGTCACCTAGTGCAG”, for which the binding signal was 8100 fluorescence intensity (a.u.). “GAGATTTTGACTATTAATTTTCATCGTCTTTGGTTTTAAGCGGAGTCACCTAGTGCAG”: the binding signal was 8300 fluorescence intensity (a.u.). With “CATGACCTCCTCTACTCACAGTATTTTTGCCCAAAATTTCCGGAGTCACCTAGTGCAG”, the binding signal is 8800 fluorescence intensity (a.u.). For “GCGTCTGCGGGATTTGGGGAGGGGAGCGGCGGCGGAGATGCGGAGTCACCTAGTGCAG”, the binding signal is 9820 fluorescence intensity (a.u.).
